Data source: PubChem BioAssay AID504793 (Drosophila RNAi Screening Center, 2011)
The deposit covers about 23,000 reagents; this is a random part of those with a known target gene and a result. Over the whole deposit, 62 (0.27%) got an active call. 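Calls come from follow-up tests whose scores are not deposited, so confirmed genes may have low counts here; counts are not normalised per plate.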 The raw values are shown without normalisation. Reagents against one gene are numbered here. Names joined by + are all predicted targets of the reagent.

Test: 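Whole-genome screen for parts of the DNA damage checkpoint at G2/M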 (primary screen)
Cells: Drosophila S2R+ cells
Reagents: long dsRNA against Drosophila genes, about 0.25 µg dsRNA per well
Duration: 4 days of dsRNA, then 4 hours of drug before read-out
Treatment: doxorubicin 0.5 µM for 4 hours to cause double-strand breaks, in cells also given a low, harmless dose of dsRNA against nbs to sensitise the assay
Measurement: 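Per-well count of mitotic cells stained for phospho-histone H3 after doxorubicin exposure, used as mitotic index; counts are raw and not normalised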
Scale: mitotic cells: higher = more cells in mitosis, weaker G2 arrest
Active means: 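a call needs confirmation in secondary tests, with other dsRNAs and a check of mitotic timing without damage, not just a high primary count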
Calls: active = confirmed in follow-up tests; inactive = not confirmed

Gene,reagent,"mitotic cells, replicate 1","mitotic cells, replicate 2",call
obst-A,1,9,,inactive
U2af38,1,1,,inactive
U2af38,2,4,,inactive
Mst89B,1,8,,inactive
spn-A,1,11,,inactive
CG15014,1,1,,inactive
CG15014,2,5,,inactive
Coq7 + shf,1,9,,inactive
Vtld + CG42529,1,3,,inactive
CG15533,1,7,,inactive
CG15533,2,6,,inactive
CG42542,1,7,,inactive
CG42542,2,17,,inactive
CG42542,3,6,,inactive
CG42542,4,5,,inactive
CG2063,1,10,,inactive
p130CAS,1,8,,inactive
p130CAS,2,15,,inactive
p130CAS,3,8,,inactive
CG9215,1,13,,inactive
CG32640 + CG32641,1,6,,inactive
CG17364,1,5,,inactive
CG17364,2,8,,inactive
CG17364,3,11,,inactive
CG17364,4,4,,inactive
CG17570,1,5,,inactive
CG17570,2,6,,inactive
sax,1,6,,inactive
sax,2,8,,inactive
Esp,1,10,,inactive
CG31459,1,5,,inactive
Pal2,1,4,,inactive
nudC,1,8,,inactive
nudC,2,4,,inactive
CG13398,1,7,,inactive
CG32148,1,4,,inactive
CG32148,2,9,,inactive
csul,1,7,,inactive
unc-104,1,5,,inactive
exp,1,8,,inactive
exp,2,3,,inactive
Afg3l2,1,2,,inactive
Afg3l2,2,16,,inactive
Acn,1,4,,inactive
Acn,2,12,,inactive
tfc,1,12,,inactive
tfc,2,10,,inactive
tfc,3,7,,inactive
tfc,4,6,,inactive
tfc,5,5,,inactive
Zasp52,1,11,,inactive
Zasp52,2,7,,inactive
Noa36,1,9,,inactive
snRNA:U1:95Cc,1,23,,inactive
CG3546,1,14,,inactive
CG3546,2,4,,inactive
Gr64a,1,12,,inactive
CG7646,1,4,,inactive
CG13067,1,7,,inactive
kel,1,5,,inactive
CG15120,1,9,,inactive
l(3)L1231,1,6,,inactive
lncRNA:CR32553,1,5,,inactive
tut,1,8,,inactive
CG14346,1,5,,inactive
CG14346,2,9,,inactive
Kebab,1,3,,inactive
Kebab,2,2,,inactive
gnu,1,3,,inactive
CG33012,1,4,,inactive
CG33012,2,2,,inactive
CG18545,1,3,,inactive
Or65a,1,3,,inactive
stl,1,13,,inactive
DENR,1,8,,inactive
CG5050,1,,,inactive
CG4198,1,2,,inactive
CG4198,2,12,,inactive
Cmpk,1,17,,inactive
Tango1,1,9,,inactive
Tango1,2,8,,inactive
CG5151,1,11,,inactive
CG5151,2,2,,inactive
rut,1,11,,inactive
ng2,1,12,,inactive
CG32264,1,12,,inactive
CG32264,2,2,,inactive
CG32264,3,5,,inactive
CG32264,4,12,19,inactive
CG32264,5,5,,inactive
CG1764,1,3,,inactive
CG12159,1,3,,inactive
CG14645,1,3,,inactive
CG34447,1,4,,inactive
BORCS6,1,4,,inactive
BORCS6,2,7,,inactive
Gbs-70E,1,8,,inactive
Ggt-1,1,4,,inactive
Ggt-1,2,7,,inactive
vsg,1,5,,inactive
vsg,2,4,,inactive
SmydA-2,1,4,,inactive
Ubc7,1,15,,inactive
eIF3i,1,8,,inactive
BBS8,1,3,,inactive
BBS8,2,10,,inactive
Pitslre,1,7,,inactive
Pitslre,2,7,,inactive
asRNA:Eig63F-2,1,5,,inactive
Men,1,6,,inactive
Men,2,14,,inactive
Men,3,8,,inactive
Men,4,5,,inactive

Sorted by “mitotic cells, replicate 1” (ascending): some entries from above
Gene,reagent,"mitotic cells, replicate 1","mitotic cells, replicate 2",call
Kebab,2,2,,inactive
CG33012,2,2,,inactive
Kebab,1,3,,inactive
gnu,1,3,,inactive
CG18545,1,3,,inactive
Or65a,1,3,,inactive
CG3546,2,4,,inactive
CG7646,1,4,,inactive
CG33012,1,4,,inactive
kel,1,5,,inactive
lncRNA:CR32553,1,5,,inactive
CG14346,1,5,,inactive
l(3)L1231,1,6,,inactive
CG13067,1,7,,inactive
tut,1,8,,inactive
CG15120,1,9,,inactive
CG14346,2,9,,inactive
Gr64a,1,12,,inactive
